Test results: the supplement of paper PMC4807443
Structures can show the parent of a compound that is named as a salt. This is one part of the list. The numbers are fractions of the control, whatever unit the source prints. Most entries show no effect beyond the scatter of the controls.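 MIN6 is a mouse insulinoma beta-cell line that stably carries a lentiviral reporter in which the Pdx1 and Ins1 promoters each drive a nucleus-targeted fluorescent protein; cells were counted by automated imaging with a Hoechst nuclear stain. In the screen, a drug was a possible hit when its Ins1 promoter readout lay beyond two median absolute deviations from the DMSO controls while Pdx1 activity stayed near normal.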

Each molecule was assayed on MIN6 (assay: % Pdx1+ Ins1+ (double-positive, mature) cells relative to DMSO control (fold of DMSO control); higher = more mature Ins1 promoter-active cells). Conditions: 8.5 µM; 48 h; glucose 5 mM.

| Structure (SMILES) | % Pdx1+ Ins1+ |
| --- | --- |
| Cc1n[nH]c(=O)[nH]c1=O [Azathymine, 6] | 0.888 |
| CN(C)CCCN1c2ccccc2Sc2ccc(Cl)cc21 [Chlorpromazine hydrochloride] | 1.11 |
| COc1ccc(C(=O)c2ccccc2O)c(O)c1 [Dioxybenzone] | 0.85 |
| CC(C)(C)NC[C@H](O)COc1ccccc1C1CCCC1 [Penbutolol sulfate] | 0.821 |
| O=c1c(O)c(-c2ccc(O)c(O)c2)oc2cc(O)cc(O)c12 [Quercetine dihydrate] | 0.929 |
| NS(=O)(=O)c1cc2c(cc1Cl)NC(CC1CCCC1)NS2(=O)=O (stereo not drawn) [Cyclopenthiazide] | 0.902 |
| CC(C)(C)NCC(O)c1cc(O)cc(O)c1 (stereo not drawn) [Terbutaline hemisulfate] | 0.981 |
| CCOC(=O)[N-]c1c[n+](N2CCOCC2)no1 [Molsidomine] | 0.876 |
| CC[N+](CC)(CC)CCOc1cccc(OCC[N+](CC)(CC)CC)c1OCC[N+](CC)(CC)CC [Gallamine triethiodide] | 0.989 |
| C#C[C@]1(O)CC[C@H]2[C@@H]3CCC4=C(CCC(=O)C4)[C@H]3CC[C@@]21C [Norethynodrel] | 1.19 |
| CCc1oc2ccccc2c1C(=O)c1cc(Br)c(O)c(Br)c1 [Benzbromarone] | 0.915 |
| CC/C(=C(\c1ccccc1)c1ccc(OCCN(C)C)cc1)c1ccccc1 [Tamoxifen citrate] | 1.1 |
| CN[C@@H]1[C@H](O[C@H]2[C@H](O[C@H]3[C@H](O)[C@@H](O)[C@H](NC(=N)N)[C@@H](O)[C@@H]3NC(=N)N)O[C@@H](C)[C@]2(O)CO)O[C@@H](CO)[C@H](O)[C@H]1O [Dihydrostreptomycin sulfate] | 1.04 |
| NCc1ccc(S(N)(=O)=O)cc1 [Mafenide hydrochloride] | 1.19 |
| CCCCC[C@H](O)/C=C/[C@H]1[C@H](O)CC(=O)[C@@H]1CCCCCCC(=O)O [Alprostadil] | 0.928 |
| CC(C(=O)O)c1ccc(C(=O)c2cccs2)cc1 (stereo not drawn) [Suprofen] | 0.813 |
| CCOc1ccc(NC(C)=O)cc1 [Phenacetin] | 0.828 |
| CN1CCC[C@@H]1CCO[C@](C)(c1ccccc1)c1ccc(Cl)cc1 [Clemastine fumarate] | 1.03 |
| COC(=O)[C@H]1[C@H]2C[C@@H]3c4[nH]c5cc(OC)ccc5c4CCN3C[C@H]2C[C@@H](OC(=O)/C=C/c2cc(OC)c(OC)c(OC)c2)[C@@H]1OC [Rescinnamin] | 0.742 |
| COC(=O)C1=C(C)NC(C)=C(C(=O)OCCN(C)Cc2ccccc2)C1c1cccc([N+](=O)[O-])c1 (stereo not drawn) [Nicardipine hydrochloride] | 0.671 |
| CN(C)CCOC(c1ccc(Cl)cc1)c1ccccn1 (stereo not drawn) [Carbinoxamine maleate salt] | 0.997 |
| NC(=O)NC1NC(=O)NC1=O (stereo not drawn) [Allantoin] | 1.22 |
| CC(C)NCC(O)c1ccc(O)c(O)c1 (single isomer, unassigned; (-)) [(-)-Isoproterenol hydrochloride] | 0.943 |
| O=C1C(O)=C([C@H]2CC[C@H](c3ccc(Cl)cc3)CC2)C(=O)c2ccccc21 [Atovaquone] | 0.987 |
| Cc1ccccc1C(OCCN(C)C)c1ccccc1 (stereo not drawn) [Orphenadrine hydrochloride] | 0.966 |

| Structure (SMILES) | % Pdx1+ Ins1+ |
| --- | --- |
| CN1CCC(=C2c3ccccc3CCc3sccc32)CC1 [Pizotifen malate] | 0.813 |
| CN1CCOC(c2ccccc2)c2ccccc2C1 (stereo not drawn) [Nefopam hydrochloride] | 1.05 |
| CN(C)[C@@H]1C(O)=C(C(=O)NCNCCCC[C@H](N)C(=O)O)C(=O)[C@@]2(O)C(O)=C3C(=O)c4c(O)cccc4[C@@](C)(O)[C@H]3C[C@@H]12 [Lymecycline] | 1.11 |
| CCCCNc1ccc(C(=O)OCCN(C)C)cc1 [Tetracaïne hydrochloride] | 0.868 |
| CCN(CC)CCOc1ccc(C(=C(Cl)c2ccccc2)c2ccccc2)cc1 [Clomiphene citrate (Z,E)] | 0.865 |
| CC(O)(P(=O)(O)O)P(=O)(O)O [Etidronic acid, disodium salt] | 0.896 |
| COc1ccccc1N1CCN(CCCCNC(=O)c2ccc3ccccc3c2)CC1 | 0.946 |
| CCC1NC(=O)c2cc(S(N)(=O)=O)c(Cl)cc2N1 (stereo not drawn) [Quinethazone] | 1.02 |
| Cc1cnc(C(=O)NCCc2ccc(S(=O)(=O)NC(=O)NC3CCCCC3)cc2)cn1 [Glipizide] | 1.07 |
| O=C(O)CN(CCN(CC(=O)O)CC(=O)O)CCN(CC(=O)O)CC(=O)O [Pentetic acid] | 1.04 |
| C#CCN(C)CCCOc1ccc(Cl)cc1Cl [Clorgyline hydrochloride] | 0.903 |
| CC(C)NCC(O)c1cc(O)cc(O)c1 (stereo not drawn) [Metaproterenol sulfate, orciprenaline sulfate] | 0.862 |
| Cn1c(=O)c2c(ncn2CCO)n(C)c1=O [Etofylline] | 1.03 |
| COc1ccccc1N1CCN(CCCNc2cc(=O)n(C)c(=O)n2C)CC1 [Urapidil hydrochloride] | 0.911 |
| CCN(CC)Cc1cc(Nc2ccnc3cc(Cl)ccc23)ccc1O [Amodiaquin dihydrochloride dihydrate] | 1.08 |
| O=C(/C=C/C=C/c1ccc2c(c1)OCO2)N1CCCCC1 [Piperine] | 1.01 |
| CCC(=O)OCC(=O)[C@@]1(OC(=O)CC)[C@@H](C)C[C@H]2[C@@H]3CCC4=CC(=O)C=C[C@]4(C)[C@@]3(Cl)[C@@H](O)C[C@@]21C [Beclomethasone dipropionate] | 0.934 |
| CC1(C)S[C@@H]2[C@H](NC(=O)Cc3ccccc3)C(=O)N2[C@H]1C(=O)O [Benzathine benzylpenicillin] | 0.86 |
| CC1(C)S[C@@H]2[C@H](NC(=O)Cc3ccccc3)C(=O)N2[C@H]1C(=O)O [Benzylpenicillin sodium] | 0.936 |
| CCN(CC)CCNC(=O)COc1ccc(OC)cc1 [Mefexamide hydrochloride] | 0.881 |
| Clc1ccc(C(Cn2ccnc2)OCc2csc3c(Cl)cccc23)c(Cl)c1 (stereo not drawn) [Sertaconazole nitrate] | 0.845 |
| CC(=O)OCC1=C(C(=O)O)N2C(=O)[C@@H](NC(=O)Cc3cccs3)[C@H]2SC1 [Cephalothin sodium salt] | 0.902 |
| O=C1CCC(N2C(=O)c3ccccc3C2=O)C(=O)N1 (stereo not drawn) [Thalidomide] | 1.07 |
| CNCCCN1c2ccccc2CCc2ccccc21 [Desipramine hydrochloride] | 0.745 |
| O=C(O)[C@]1(O)C[C@@H](O)[C@@H](O)[C@H](O)C1 [Quinic acid] | 1.06 |

Reformatted bar-delimited: entries from further up.
Structure (SMILES) | % Pdx1+ Ins1+
COC(=O)C1=C(C)NC(C)=C(C(=O)OCCN(C)Cc2ccccc2)C1c1cccc([N+](=O)[O-])c1 (stereo not drawn) [Nicardipine hydrochloride] | 0.671
CCC1NC(=O)c2cc(S(N)(=O)=O)c(Cl)cc2N1 (stereo not drawn) [Quinethazone] | 1.02
Clc1ccc(C(Cn2ccnc2)OCc2csc3c(Cl)cccc23)c(Cl)c1 (stereo not drawn) [Sertaconazole nitrate] | 0.845

Next results follow.

| Structure (SMILES) | % Pdx1+ Ins1+ |
| --- | --- |
| O=C1OC(CN2CCOCC2)CN1/N=C/c1ccc([N+](=O)[O-])o1 (stereo not drawn) [Furaltadone hydrochloride] | 0.871 |
| Cc1cccc(Nc2ccccc2C(=O)O)c1C [Mefenamic acid] | 1.14 |
| C[n+]1ccccc1/C=N/O [Pralidoxime chloride] | 0.935 |
| CN1CCC(OC(c2ccccc2)c2ccccc2)CC1 [Diphenylpyraline hydrochloride] | 0.873 |
| CN(C)CCCN1c2ccccc2CCc2ccccc21 [Imipramine hydrochloride] | 1.02 |
| NC(CO)C(=O)NNCc1ccc(O)c(O)c1O (stereo not drawn) [Benserazide hydrochloride] | 0.968 |
| NCCC[C@H](N)CC(=O)N[C@H]1CNC(=O)[C@H]([C@H]2C[C@H](O)NC(N)=N2)NC(=O)/C(=C/NC(N)=O)NC(=O)[C@H](CO)NC(=O)[C@H](CO)NC1=O [Viomycin sulfate] | 0.865 |
| Fc1ccc([C@@H]2CCNC[C@H]2COc2ccc3c(c2)OCO3)cc1 [Paroxetine Hydrochloride] | 0.949 |
| NCC[C@H](O)C(=O)N[C@@H]1C[C@H](N)[C@@H](O[C@H]2O[C@H](CN)[C@@H](O)[C@H](O)[C@H]2O)[C@H](O)[C@H]1O[C@H]1O[C@H](CO)[C@@H](O)[C@H](N)[C@H]1O [Amikacin hydrate] | 1.02 |
| Cn1cnc([N+](=O)[O-])c1Sc1ncnc2[nH]cnc12 [Azathioprine] | 0.983 |
| COc1c2c(nc3ccccc13)OC(C(C)(O)CO)C2 (stereo not drawn) [Dubinidine] | 0.992 |
| CC(C)C(=O)Nc1ccc([N+](=O)[O-])c(C(F)(F)F)c1 [Flutamide] | 0.975 |
| CC1COc2c(N3CCN(C)CC3)c(F)cc3c(=O)c(C(=O)O)cn1c23 (stereo not drawn) [Ofloxacin] | 1.14 |
| O=C(O)CCCC[C@@H]1SC[C@@H]2NC(=O)N[C@@H]21 [Biotin] | 0.97 |
| COCC(=O)Nc1c(I)c(C(=O)NCC(O)CO)c(I)c(C(=O)N(C)CC(O)CO)c1I (stereo not drawn) [Iopromide] | 0.947 |
| C[C@@]1(O)CCOC(=O)C1 [Mevalonic-D, L acid lactone] | 0.801 |
| COC(=O)C1=C(C)NC(C)=C(C(=O)OC(C)C)C1c1cccc2nonc12 (stereo not drawn) [Isradipine] | 0.791 |
| C[C@H](CCC(=O)O)[C@H]1CC[C@H]2[C@@H]3CC[C@@H]4C[C@H](O)CC[C@]4(C)[C@H]3CC[C@]12C [Lithocholic acid] | 0.73 |
| CC(=O)SCC(Cc1ccccc1)C(=O)NCC(=O)OCc1ccccc1 (stereo not drawn) [Racecadotril] | 0.988 |
| Nc1nc(N)c2nc(-c3ccccc3)c(N)nc2n1 [Triamterene] | 0.887 |
| C=C1CC[C@H](O)C/C1=C/C=C1\CCC[C@]2(C)[C@@H]([C@H](C)/C=C/[C@H](C)C(C)C)CC[C@@H]12 [Calciferol] | 1.21 |
| CC(C)(C)NC(=O)[C@H]1CC[C@H]2[C@@H]3CC[C@H]4NC(=O)C=C[C@]4(C)[C@H]3CC[C@]12C [Finasteride] | 0.771 |
| CN1[C@@H]2CC[C@H]1C[C@@H](OC(=O)C(O)c1ccccc1)C2 (mixture of isomers) [Homatropine hydrobromide (R,S)] | 1.04 |
